Measured values reported in patent publication US20060293242A1, “Transporting of taxoid derivatives through the blood brain barrier” (priority 2001, published 2006).

Settings: in water or in biological buffers

CC(=O)O[C@H]1C(=O)[C@@]2(C)[C@H]([C@H](OC(=O)c3ccccc3)[C@]3(O)C[C@H](OC(=O)[C@H](O)[C@@H](NC(=O)c4ccccc4)c4ccccc4)C(C)=C1C3(C)C)[C@]1(OC(C)=O)CO[C@@H]1C[C@@H]2O [Free Taxol, paclitaxel]
solubility (in words): very insoluble
